Hit rate of the full screen: of about 140,000 compounds, about 4,300 (3.1%) were called active. Inconclusive results, whose numbers are uncertain, are shown with a selection of clear calls.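 The calls were made as follows: active = readout at or below -70, meaning at least 70% loss of cells showing the perinucleolar compartment, a nuclear body marking cancer cells; inconclusive = readout between -30 and a set limit; inactive = the rest.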
Test: High Content Assay for Compounds that inhibit the Assembly of the Perinucleolar Compartment;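 also: plate controls were DMSO wells for no effect and camptothecin positive control wells for full effect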
Settings: PC3M PTB-GFP, PNC prevalence imaging, 16 h; at 10 µM; active compounds read low
In short: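 Read-out is percentage of cells bearing a perinucleolar compartment, from automated 20x imaging of fixed, Hoechst-stained PC3M PTB-GFP cells. Cells were seeded 4 h, then exposed 16 h to compound (23 nl of library stock) in duplicate plates.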

Structure (SMILES)	activity change (PNC), negative = inhibition
O=C(NCc1nc2ccccc2[nH]1)c1ccco1	active: -98%
CCc1ccccc1N(C)C(=O)CCc1nc(-c2ccc(C)cc2)no1	inactive: 12.4%
CCOc1ccc(CCNc2cc(C)nc3ncnn23)cc1OCC	inconclusive: -53.9%
C(=N\c1nc2ccccc2n1CCN1CCCCC1)/c1cccs1	inconclusive: -34.3%
Cc1cc(C(F)(F)F)nn1CC(=O)Nc1cccnc1	inactive: -9.8%
CCOc1ccc(C2C(C#N)=C(N)Oc3cc(C)n(CCN4CCOCC4)c(=O)c32)cc1OCC (centres undefined)	inactive: 29.1%
COc1ccc(/C=N/NC(=O)c2ccc(Cl)cc2)cc1COC(C)=O	inconclusive: -39.6%
COc1ccccc1C1C2=C(COC2=O)Nc2cc3c(cc21)OCO3 (centres undefined)	inconclusive: -53.7%
CCOC(=O)CN1C(=O)C(Sc2n[nH]c(-c3cccc(C)c3)n2)CCc2ccccc21 (centres undefined)	inconclusive: -30.3%
O=C(COc1cccc2cccnc12)N/N=C1\SCC(=O)N1Cc1ccccc1	inconclusive: -60.7%
COC(=O)CSc1nc2c(c(=O)n(C)c(=O)n2C)n1CCC(C)C	inconclusive: -55%
CNC(=O)C1(C)C=CCN1C(=O)c1ccccc1 (centres undefined)	inactive: 27.2%
COc1cc(OC)nc(-n2ncc(Br)c(Br)c2=O)n1	inconclusive: -31.2%
COC(=O)c1cc(NC(=O)C2COc3ccccc3O2)cc(C(=O)OC)c1 (centres undefined)	inconclusive: -39.6%
CCc1nnc(NC(=O)CSc2nnc(CNc3ccc(Cl)cc3)o2)s1	inconclusive: -32.9%
CC(=O)Nc1cccc(N(C)S(C)(=O)=O)c1	inconclusive: -31.6%
COC(=O)CCCNC(=O)OCc1ccc([N+](=O)[O-])cc1	inconclusive: -44.6%
O=C(CCCc1c[nH]c2ccccc12)N1CCN(S(=O)(=O)c2cccs2)CC1	inactive: -5.2%
Cc1ccc(-c2nc(N)n(C(=O)c3cccnc3)n2)cc1	inconclusive: -61.8%
C=C(C)C1CC=C(C)/C(=N/NC(=O)c2ccc(NC(=O)CC)cc2)C1 (centres undefined)	inconclusive: -60.6%

Structure (SMILES)	activity change (PNC), negative = inhibition
CCN=C1S/C(=C\c2cn(C(C)=O)nc2-c2ccccc2)C(=O)N1CC	inactive: -2.22%
COc1cc2c(cc1NC(=O)c1ccccc1F)CCCC2	inconclusive: -52.9%
COC(=O)c1cc(COC(=O)c2ccc(OC)c(S(=O)(=O)N3CCCC3)c2)oc1C	inconclusive: -64.9%
Cc1ccc(NC(=O)NC(=O)CSc2nnc(-c3ccc(Cl)cc3Cl)n2N)c(C)c1	inconclusive: -54.3%
CCOC(=O)N1CCN(C2CC(=O)N(c3ccc(Cl)c(Cl)c3)C2=O)CC1 (centres undefined)	active: -100%
Cc1ccc(NC(=O)C2CCN(S(=O)(=O)c3ccc(F)cc3)CC2)cc1	inconclusive: -51.1%
CCCCNC(=O)c1onc(CCl)c1C(=O)OC	inconclusive: -32.7%
CC12CC3(C)CC(C)(C1)CC(C(=O)NC(=S)N1CCOCC1)(C2)C3	inconclusive: -39.3%
CC(NCc1ccc(-c2ccccc2)cc1)C(O)c1ccccc1 (centres undefined)	active: -118%
Cc1nn(Cc2ccccc2)c(C)c1NC(=O)CSc1nc(C2CC2)nc2c1cnn2-c1ccccc1	active: -87.6%
O=C(NCc1cccnc1)c1cc(Sc2ccc(F)cc2F)nc2ccccc12	inconclusive: -55.2%
COc1ccc(CCNC(=O)c2ccc(N3CCCC3=O)cc2)cc1	inactive: -21.9%
O=C(Cn1cnc2ccccc2c1=O)c1cccs1	inconclusive: -32.5%
CCOC(=O)c1nsnc1NCCSC(=N)N	inactive: -24.8%
S=c1[nH]nc(-c2cccnc2)o1	inactive: -2.19%
CCCCn1c(CNC(C)=O)nc2ccccc21	inconclusive: -53.2%
COCc1nc(-c2cc(Br)ccc2OC)no1	inconclusive: -76.3%
COc1cccc(C(=O)Nc2ccc(S(=O)(=O)Nc3nccc(C)n3)cc2)c1	inconclusive: -38.7%
Cc1ccc(-n2nc3c(c2NC(=O)c2ccc(S(=O)(=O)N4CCOCC4)cc2)CSC3)c(C)c1	inconclusive: -33.3%
Cc1ccc(C)c(C(=O)COc2ccc(C)nc2[N+](=O)[O-])c1	inconclusive: -50.6%

Copied from the list.
Value of COc1cccc(C(=O)Nc2ccc(S(=O)(=O)Nc3nccc(C)n3)cc2)c1 under activity change (PNC), negative = inhibition: inconclusive: -38.7%
Value of O=C(Cn1cnc2ccccc2c1=O)c1cccs1 under activity change (PNC), negative = inhibition: inconclusive: -32.5%

(cont.)

Structure (SMILES)	activity change (PNC), negative = inhibition
COc1ccc(CCNC(=O)c2ccc(N3CCCC3=O)cc2)cc1OC	inconclusive: -30.7%
Cc1csc2nc(CNC(=O)c3ccco3)cn12	inconclusive: -67.3%
CC(C)Oc1nnnn1-c1ccccc1	inconclusive: -42.7%
CCCNC(=O)NC(=O)COC(=O)CC(NC(N)=O)c1ccc(Cl)cc1 (centres undefined)	inconclusive: -57.9%
CCCn1c2ccccc2c2nc3ccccc3nc21	inconclusive: -31.5%
C=CCN1C(=O)/C(=C/c2ccc(O)cc2)S/C1=N/c1nccs1	inactive: 3.13%
CC1CC(=O)NN=C1c1ccc(NCCO)c([N+](=O)[O-])c1 (centres undefined)	inactive: -7.23%
CCCCOCCCNC(=O)CC(C)c1ccccc1 (centres undefined)	inconclusive: -47.7%
CC(C)C[C@H](NC(=O)Nc1cccc(C(F)(F)F)c1)C(=O)O	active: -100%
Cc1ccc(C(=O)Oc2csc(=S)n2C(=O)c2ccc(C)cc2)cc1	inconclusive: -52.9%
CCc1cc(C(=O)N=Nc2c(O)[nH]c3ccc([N+](=O)[O-])cc23)c2ccccc2n1	inactive: 32.4%
Cc1ccc(NC2=NCC(=O)N2C2CCCC2)c(C)c1	inconclusive: -47.7%
C=CCn1c(SCC(=O)N2CCOCC2)nc(O)cc1=O	inactive: 47%
CCc1ccc(OCC(=O)O/N=C(\N)Cc2ccc([N+](=O)[O-])cc2)cc1	inconclusive: -38.7%
O=C(CC(C(=O)N1CCc2ccccc21)n1ccnc1)N1CCc2ccccc2C1 (centres undefined)	inactive: 5.61%
Clc1nc(-c2cccnc2)nc2scc(-c3ccccc3)c12	inactive: 2.13%
O=C(c1ccc(OCC2CCCO2)cc1)N1CCN(c2ccccc2)CC1 (centres undefined)	inconclusive: -63%
Cc1c(NC(=O)C2CC=CCC2C(=O)O)c(=O)n(-c2ccccc2)n1C (centres undefined)	inconclusive: -43%
COc1cccc(OCCOCCN(C)CCO)c1	inconclusive: -31.5%

From PubChem BioAssay AID2417 (National Center for Advancing Translational Sciences (NCATS), 2010)
